Reference: publication PMC5364480
Results are given in words; binding and its absence hold for the method and conditions named.

Tests used:
[1] = target: T1, …3 (Arabidopsis), O22456; experiment: two-hybrid; pGADT7 AD and pGBKT7 BD vectors co-transformed into yeast Y187; quantitative β-galactosidase assay with ONPG (Miller units); details: remark: other sources report otherwise
T1 chain: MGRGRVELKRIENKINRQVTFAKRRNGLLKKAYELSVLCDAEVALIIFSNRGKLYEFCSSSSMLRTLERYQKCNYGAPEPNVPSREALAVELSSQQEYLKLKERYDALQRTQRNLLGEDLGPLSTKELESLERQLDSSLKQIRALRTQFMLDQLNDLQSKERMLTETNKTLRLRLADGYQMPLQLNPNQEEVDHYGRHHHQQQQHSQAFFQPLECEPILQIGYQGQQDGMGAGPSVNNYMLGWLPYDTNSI

[2] = target: T1, …3 (Arabidopsis), O22456; experiment: yeast three-hybrid; AD and BD vectors plus a third vector pTFT1 with SEP3 in yeast Y187; β-galactosidase with ONPG; Y2H reads subtracted from Y3H results; details: remark: other sources report otherwise

- binding [1]: no binding
- binding [2]: no binding
B1: …3, O22456 1-251 (protein)
chain: T1 chain
